Reference: patent US20250041461A1, “[177LU] LUTETIUM-PSMA I&T COMPOSITION AND DOSIMETRY, KIT, METHOD OF MAKING, AND METHOD OF USING THEREOF” (Curium US LLC, priority 2023, published 2025)
“And” between values parts separate entries of the source, which are not always exact repeats. Equal entries are not always repeated. This continues a long series; more values of the same kind are listed elsewhere.

Assay: Plasma PK modelling (gamma counting, bi-exponential fit), cycles 1 and 3
Type: in vivo, human
Protocol: PK plasma samples were collected at pre-Infusion, 1 h, 4 h, 24 h, 48 h, and 168 h, and counted for radioactivity. Blood samples were first centrifuged to extract plasma, and then the radioactivity in plasma was counted in a gamma counter.
Whole blood samples were collected as detailed in the protocol Schedule of Events i.e. pre-injection, and then at 1 h, 4 h, 24 h, 48 h, and 168 h post-injection. The samples were first centrifuged to separate plasma, and the radioactivity in the plasma was then measured using a gamma counter. Plasma concentrations were subsequently fitted with a bi-exponential function to derive outcome parameters such as the half-life and clearance rate of the radiopharmaceutical in the plasma.
Gamma-counted plasma samples were quality controlled using the same ^177Lu reference standard by measuring 0.5 ml of the 100 mL in the saline bag. For each patient, triplicates were made and measured right before all plasma samples were counted. A long-lived isotope was also counted to ensure that the protocol was properly followed by each site. Similarly to the imaging standard, when the gamma counter efficiency factor differed by more than 10% compared to that at site set-up, an investigation was launched to determine the cause of this variation, and if it reflected a difference in data acquisition.
Plasma data was fitted with a bi-exponential curve.
Blood samples were obtained for 15 out of 16 patients at cycle 3. Patients 12-004 had blood taken only at the 24 h timepoint and, therefore, was not included in the plasma PK analysis. Consistent with Cycle 1, the time-course of plasma concentrations was similar among the patients. The ranges of PK parameters obtained at cycle 3 were similar to those from Cycle 1 data (Table 6). Cycle 3 PK plasma modeling results (n=15)

[1] = plasma, Cycle 1, individual patients

O=C([O-])CC[C@H](NC(=O)N[C@@H](CCCCNC(=O)CCCCCCC(=O)NCCCC[C@@H](NC(=O)[C@@H](Cc1ccccc1)NC(=O)[C@@H](Cc1ccc(O)c(I)c1)NC(=O)CC[C@H](C(=O)[O-])N1CCN(CC(=O)[O-])CCN(CC(=O)[O-])CCN(CC(=O)[O-])CC1)C(=O)[O-])C(=O)[O-])C(=O)[O-].[177Lu+3].[H+].[H+].[H+].[H+].[H+] [^177Lu-PSMA I&T, (3S,7S,26R,29R,32R,37R)-29-benzyl-32-(4-hydroxy-3-iodobenzyl)-5,13,20,28,31,34-hexaoxo-37-(4,7,10-tris(carboxymethyl)-1,4,7,10-tetraazacyclododecan-1-yl)-4,6,12,21,27,30,33-heptaazaheptatriacontane-1,3,7,26,37-pentacarboxylic acid; lutetium-177 (III)]
plasma half-life, outlier (cycle 1, patient 42-030): 113.96 h
clearance (cycle 1, plasma): 13.06 ± 16.50 L/h
Distribution Half-Life [1]: 1.30 h
Peak Concentration Value [1]: 0.01 fIA/L and 0.06 fIA/L (2×) and 0.02 fIA/L and 0.07 fIA/L (2×)
Peak Concentration Value (plasma, cycle 3, max (n=15)): 0.07 fIA/L
Peak Concentration Value (plasma, cycle 3, median (n=15)): 0.04 fIA/L
Peak Concentration Value (plasma, cycle 3, min (n=15)): 0.03 fIA/L
